Assay results

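Genome-wide siRNA knockdown in TC32 Ewing sarcoma cells, comparing luciferase light from an NR0B1-promoter reporter with a CMV-promoter reporter 48 hours after transfection.
Each siRNA was applied at 20 nM.
A z-score of the log NR0B1-over-CMV signal, less the median of siRNAs with the same seed; more negative means a stronger specific loss of the NR0B1 reporter.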

This is part of the screen; most of the strongest results are not listed here.
Sequences are the guide (antisense) strand, without overhang.

| # | siRNA | gene | seed-corrected z-score |
|---|---|---|---|
| 1 | `UCUUUUAAUACAUUCCUCA` | HAUS5 | 0.7081 |
| 2 | `UCACUUCUGGUUUGGACAC` | PRRT2 | 0.02231 |
| 3 | `UCUAGGAACAGGGAGUUUC` | SERPINA11 | 0.4292 |
| 4 | `AAAGCUAGUUCUUUGCUCC` | NPS | 0.2391 |
| 5 | `UUCGCUUAUACGUUGAGCC` | PIP5K1B | 0.1403 |
| 6 | `UAUCUGAUCUCUCGGUCCC` | PLPP2 | -0.5736 |
| 7 | `UUUUCUAGUGAUUAGGUGG` | HIST2H2BE | 0.03039 |
| 8 | `UUUUCUUGAAGUAGGUUCU` | MLXIP | 0.5938 |
| 9 | `AUUGUCUUGAGAUAUGCCC` | IL31 | -0.427 |
| 10 | `AAUAGGACAAUUUCUCGCC` | NKX2-3 | 1.004 |
| 11 | `UCAGUUCAUACUGCGAGCC` | IRX1 | 0.3899 |
| 12 | `UCAUGGAUAUCAUAAGUUC` | C1orf27 | 0.4342 |
| 13 | `UUCGUUUGGAGAGUUGUAG` | ACAD11 | -0.01982 |
| 14 | `AGAGGAAUGAUGUUCCUGU` | CD79B | 0.527 |
| 15 | `UAAGACUAAUCCACCCAGC` | PRR36 | -0.03088 |
| 16 | `UGCAGCUUAGUCAAGAUAU` | LOC388955 | -0.5145 |
| 17 | `UAUCGGACAAACCACAGAU` | RNF114 | 0.1776 |
| 18 | `UCUGAGUUCUUUUAGUCUC` | LINC00303 | 0.1403 |
| 19 | `UUAAGGACCAGUAAAAGGC` | ZNF962P | 1.499 |
| 20 | `UCUUUGUACAGCUCUUCCG` | KLC3 | 0.3649 |
| 21 | `AACAGGUUUAGGAAGUUGG` | ARMC12 | -1.036 |
| 22 | `ACCAUAACACCCAUAGUGC` | MON1A | -0.8811 |
| 23 | `ACCAGAAUCACAGUCUUGC` | RBM19 | 0.2419 |
| 24 | `UUCGACAAUAUUAAAUCUC` | CNKSR2 | 0.1004 |
| 25 | `ACAGGGUUAAGAUUAGUUU` | GJB1 | 0.6187 |
| 26 | `AAUUCUUCUGUUCAGUUUG` | KLK5 | 0.0923 |
| 27 | `UUCUUGACAGCUGAUGGAC` | CFP | -0.04559 |
| 28 | `UAAAAAGCAAUCCGUGACC` | DUS1L | 0.09559 |
| 29 | `UUGAUUUGGUUUAUCAUUG` | SNX7 | 1.215 |
| 30 | `UUAGCUAUGACGAUCAUGC` | FBXL17 | 1.541 |
| 31 | `UGCCGUUUAUGCCUUGUUC` | IBSP | -1.106 |
| 32 | `UUAUGUCCACACUCAAGCC` | C1orf210 | -0.3081 |
| 33 | `UCUUCGUUGAGUGACAGUC` | DNAJB9 | 0.3015 |
| 34 | `AUCCAUGUAGCGACUUUCC` | GADD45A | 0.3021 |
| 35 | `UCUUGCAUAAGAAGAAGGC` | ACTL6B | 0.2888 |
| 36 | `UUUUGUAAUAAAGUGAAGC` | TMEM70 | 0.8373 |
| 37 | `UGGGUUAUCCUUGUAGUCC` | SUGP1 | 0.108 |
| 38 | `UAAGUUCCUAAGCGAGCGG` | CHPT1 | 0.8842 |
| 39 | `UUUCCUACCCAGGUGAUAC` | DNAJC5G | -0.06933 |
| 40 | `ACAGUGGAAAGUUCGGUCC` | ZNF385A | 0.3301 |
| 41 | `UUUAUUUCCCUCCACCUUC` | HIRIP3 | 0.7844 |
| 42 | `AAUCGUGGAACAUAUGGUG` | EPS8 | -0.1408 |
| 43 | `AAGGAAUUAGUUCAUUUUC` | SLC22A25 | 0.02292 |
| 44 | `AAAGAGAUCUGCUAUGGCC` | P3H4 | 0.3616 |
| 45 | `UCCAUUAUAAAUAGAAACC` | BNIP3 | 0.2651 |
| 46 | `UGUUCUUCAGGGCUCGGAC` | NACA | -0.9725 |
| 47 | `UUUGCCUUCCGGACCAUGC` | STK19 | -1.943 |
| 48 | `UAACUUUCGCUCUGGGACC` | NOLC1 | -0.344 |
| 49 | `UGGAGUCUAAGCAGGCUGC` | C16orf90 | 0.05211 |
| 50 | `UCUGCUUAAAUCGAUGCAC` | RIMS1 | -0.2925 |
| 51 | `UUAAGACUGUUUUCCGUCC` | OAS2 | -0.895 |
| 52 | `AAAAUGACGGUAUUUCUUC` | PLD2 | -0.6203 |
| 53 | `UCCUCAGCGAGAUAGAGUG` | PDYN | -1.333 |
| 54 | `UAACUCAUACUCCCGCACC` | RPL11 | -0.4022 |
| 55 | `UAUCCGUAGGAGUCAAAGC` | NKAIN1 | 0.08835 |
| 56 | `UCGAUGAACAUUUGUAGCC` | LRP6 | -0.5238 |
| 57 | `UGGUAUAUUCUGGUGAUCG` | ZCCHC11 | 0.3071 |
| 58 | `AAACCAAUAAGCAGACUUC` | SLC9B2 | -0.1225 |
| 59 | `UUUGCACACACAGUCCUUG` | MT3 | 0.2411 |

Once more, the final 6:

UAACUCAUACUCCCGCACC against RPL11 gave seed-corrected z-score -0.4022.
UAUCCGUAGGAGUCAAAGC against NKAIN1 gave seed-corrected z-score 0.08835.
UCGAUGAACAUUUGUAGCC against LRP6 gave seed-corrected z-score -0.5238.
UGGUAUAUUCUGGUGAUCG against ZCCHC11 gave seed-corrected z-score 0.3071.
AAACCAAUAAGCAGACUUC against SLC9B2 gave seed-corrected z-score -0.1225.
UUUGCACACACAGUCCUUG against MT3 gave seed-corrected z-score 0.2411.

Data taken from PubChem BioAssay AID1159506, deposited by NCATS (2015).